Measurements taken from PMC11996681.

Sequences of proteins named here, by UniProt entry; tags and fusion partners are left off. Residues count along the entry.
UniProt Q9NY43, 227-293 T278N/T285R: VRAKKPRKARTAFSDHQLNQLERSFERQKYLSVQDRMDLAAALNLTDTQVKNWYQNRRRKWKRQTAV
UniProt Q9NY43, 227-293 T278I/T285V: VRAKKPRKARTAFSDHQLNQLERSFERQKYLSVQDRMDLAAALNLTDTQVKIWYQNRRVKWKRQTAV

How the values were obtained:
[1] = target: BARHL2 DBD T278N/T285R (PKNOX1) (human) (UniProt Q9NY43); test: HT-SELEX; conditions: SELEX buffer: 10.4 mM Tris-HCl pH 7.5, 51.4 mM NaCl, 1.4 mM MgCl2, 4% glycerol, 100 uM EGTA, 0.7 mM DTT, 3.7 ug/ml poly-dI-dC, 1.4 uM ZnSO4; room temperature (22 C); high values mean tight binding; recombinant protein; protein details: His (pETG20A_SPB vector); only the motif is given; counted as no binding
[2] = target: BARHL2 DBD T278I/T285V (HOXB13) (human) (UniProt Q9NY43); test: HT-SELEX; conditions: SELEX buffer: 10.4 mM Tris-HCl pH 7.5, 51.4 mM NaCl, 1.4 mM MgCl2, 4% glycerol, 100 uM EGTA, 0.7 mM DTT, 3.7 ug/ml poly-dI-dC, 1.4 uM ZnSO4; room temperature (22 C); high values mean tight binding; recombinant protein; protein details: His (pETG20A_SPB vector); only the motif is given; counted as no binding

Sequence	binding signal (fold enrichment) [1]	binding signal (fold enrichment) [2]
TAAATG (double strand)	0.8	
TAACCG (double strand)		1.2
TAAGCG (double strand)	1.1	1.2
TAATGG (double strand)	1.2	
